Laboratory results: doi:10.1101/2023.08.07.552250
Read-outs that look alike come from different tables or passages of the source. Results are given in words; binding and its absence hold for the method and conditions named. For some assays here: Binding seen in cells or lysates may run through a third protein. Some binding calls cover weakened binding; strength is not graded here. For some assays here: Where a sequence is shown, tags or fusion partners need not be part of it.

By UniProt entry, the sequences of proteins in these tests, tags left out.
UniProt Q9LY75, whole entry: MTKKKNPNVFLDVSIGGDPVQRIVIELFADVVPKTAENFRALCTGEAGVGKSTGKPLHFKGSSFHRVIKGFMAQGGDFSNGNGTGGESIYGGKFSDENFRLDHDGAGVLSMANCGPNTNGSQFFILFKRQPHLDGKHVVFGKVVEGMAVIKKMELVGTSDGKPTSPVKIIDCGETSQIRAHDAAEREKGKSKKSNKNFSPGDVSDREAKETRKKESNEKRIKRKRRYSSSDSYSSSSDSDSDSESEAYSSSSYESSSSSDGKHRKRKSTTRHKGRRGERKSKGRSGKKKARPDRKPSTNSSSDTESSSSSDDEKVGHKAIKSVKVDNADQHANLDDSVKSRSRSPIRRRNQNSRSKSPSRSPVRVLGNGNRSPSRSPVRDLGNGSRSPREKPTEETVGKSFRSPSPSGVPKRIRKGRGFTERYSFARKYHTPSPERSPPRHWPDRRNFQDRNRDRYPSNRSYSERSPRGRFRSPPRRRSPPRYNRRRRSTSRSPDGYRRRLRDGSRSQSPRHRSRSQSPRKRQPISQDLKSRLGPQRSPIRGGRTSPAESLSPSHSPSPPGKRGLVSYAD

T1: serine/arginine-rich 45 (SR45), SR45.1 isoform (Arabidopsis thaliana) (UniProt Q9SEE9)
T1 sequence: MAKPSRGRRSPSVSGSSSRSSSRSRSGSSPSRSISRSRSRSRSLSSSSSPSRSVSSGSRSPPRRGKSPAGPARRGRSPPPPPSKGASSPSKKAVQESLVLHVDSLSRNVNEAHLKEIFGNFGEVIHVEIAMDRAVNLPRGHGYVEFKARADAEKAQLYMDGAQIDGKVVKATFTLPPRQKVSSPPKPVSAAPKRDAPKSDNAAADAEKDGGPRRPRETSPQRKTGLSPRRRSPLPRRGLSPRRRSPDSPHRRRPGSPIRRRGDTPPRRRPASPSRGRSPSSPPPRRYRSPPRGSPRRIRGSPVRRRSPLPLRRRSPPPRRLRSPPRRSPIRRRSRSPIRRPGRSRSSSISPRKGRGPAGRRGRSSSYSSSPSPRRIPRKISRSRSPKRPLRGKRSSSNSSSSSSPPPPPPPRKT

T2: SR45mutRRM (Arabidopsis thaliana) (UniProt Q9SEE9)
T2 sequence: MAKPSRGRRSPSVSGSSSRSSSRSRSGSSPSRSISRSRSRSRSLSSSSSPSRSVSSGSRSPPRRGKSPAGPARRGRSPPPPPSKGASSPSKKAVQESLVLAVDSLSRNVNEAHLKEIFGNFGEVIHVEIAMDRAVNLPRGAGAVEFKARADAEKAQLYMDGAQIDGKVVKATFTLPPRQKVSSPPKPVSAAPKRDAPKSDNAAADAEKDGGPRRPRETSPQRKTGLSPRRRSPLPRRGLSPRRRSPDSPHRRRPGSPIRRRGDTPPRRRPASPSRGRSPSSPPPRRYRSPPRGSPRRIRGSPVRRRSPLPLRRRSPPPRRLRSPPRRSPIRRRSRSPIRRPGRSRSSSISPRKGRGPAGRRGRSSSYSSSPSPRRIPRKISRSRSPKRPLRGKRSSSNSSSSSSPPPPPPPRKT

T3: SR45:CYFP (Arabidopsis thaliana) (UniProt Q9SEE9)
T3 sequence: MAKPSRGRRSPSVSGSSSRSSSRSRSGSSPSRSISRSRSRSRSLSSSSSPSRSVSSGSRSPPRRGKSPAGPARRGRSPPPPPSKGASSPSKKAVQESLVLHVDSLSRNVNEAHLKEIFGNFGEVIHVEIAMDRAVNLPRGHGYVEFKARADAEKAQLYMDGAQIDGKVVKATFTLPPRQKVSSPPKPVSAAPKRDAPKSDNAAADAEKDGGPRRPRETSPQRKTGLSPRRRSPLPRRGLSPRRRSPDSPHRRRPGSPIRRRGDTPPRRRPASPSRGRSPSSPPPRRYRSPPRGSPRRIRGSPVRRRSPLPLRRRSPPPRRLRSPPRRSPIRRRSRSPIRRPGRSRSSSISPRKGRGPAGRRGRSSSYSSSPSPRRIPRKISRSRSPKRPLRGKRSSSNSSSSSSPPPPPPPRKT

T4: SR45mutRRM fused to CYFP (Arabidopsis thaliana) (UniProt Q9SEE9)
T4 sequence: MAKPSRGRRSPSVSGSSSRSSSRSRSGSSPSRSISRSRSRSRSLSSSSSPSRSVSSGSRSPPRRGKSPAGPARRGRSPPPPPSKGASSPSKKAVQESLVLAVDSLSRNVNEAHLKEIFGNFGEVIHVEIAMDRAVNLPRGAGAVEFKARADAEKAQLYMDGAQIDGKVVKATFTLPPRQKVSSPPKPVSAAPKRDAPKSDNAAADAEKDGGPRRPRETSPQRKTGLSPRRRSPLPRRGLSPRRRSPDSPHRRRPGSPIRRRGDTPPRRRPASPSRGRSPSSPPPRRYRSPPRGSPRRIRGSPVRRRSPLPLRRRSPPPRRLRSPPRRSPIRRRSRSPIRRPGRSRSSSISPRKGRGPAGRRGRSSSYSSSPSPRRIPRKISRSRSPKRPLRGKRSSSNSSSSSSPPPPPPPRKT


What was measured:
[1] = biological target: T1, serine/arginine-rich 45 (SR45), SR45.1 isoform (Arabidopsis thaliana); assay: two-hybrid
[2] = biological target: T2, SR45mutRRM (Arabidopsis thaliana); assay: two-hybrid
[3] = biological target: T1, serine/arginine-rich 45 (SR45), SR45.1 isoform (Arabidopsis thaliana); assay: two-hybrid; remark: listed apart in the source
[4] = biological target: T3, SR45:CYFP (Arabidopsis thaliana); assay: split reporter
[5] = biological target: T4, SR45mutRRM fused to CYFP (Arabidopsis thaliana); assay: split reporter

binding [1] | binding [2] | binding [3] | binding [4] | binding [5] | Molecule
binds | no binding | binds |  |  | CypRS64 (Cyclophilin-containing RS domain of 64 kDa) (from UniProt Q9LY75 1-570)
 |  |  | binds | binds | PRP38:NYFP (protein, UniProt Q8LB54 1-355) MANRTDPLAKNIRGTNPQNLVEKIVRTKIYQHTFWKEQCFGLTAETLVDKAMELDHLGGTFGGSRKPTPFLCLILKMLQIQPEKEIVVEFIKNDDYKYVRILGAFYLRLTGTDVDVYRYLEPLYNDYRKVRQKLSDGKFSLTHVDEVIEELLTKDYSCDIAMPRLKKRWTLEQNGLLEPRKSVLEDDFEEEEEKEENEGIADGSEDEMDQRRKSPERERERDRDRRRDSHRHRDRDYDRDYDMDRDHDRDYERERGHGRDRDRERDRDHYRERDRDRERGRDRERDRRDRARRRSRSRSRDRKRHETDDVRDREEPKKKKEKKEKMKEDGTDHPNPEIAEMNRLRASLGMKPLRD
